Measured values published in the supplement of paper PMC11438910.
Some of the results follow. The signal is at background level for most entries.

Tests used:
Experiment in all cases: fluorescence intensity of antibody binding to polysaccharide-coupled beads; higher = stronger binding
[1] = molecular target: pneumococcal polysaccharide Pn7A
Experimental: (§1)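 Recombinant rhesus-murine chimeric IgG1 antibodies were tested against antigen-coupled MagPlex beads in a 96-plex Luminex direct immunoassay (dLIA). The beads carried pneumococcal capsular polysaccharides of 93 serotypes plus C-polysaccharides. Antibody was added at 0.1–12,500 ng/mL for 1 h, then PE anti-mouse IgG, and net MFI was read on a Bio-Plex 3D. Only the rhesus variable regions are printed; constant regions are murine IgG1/kappa/lambda, and the signal peptide is MGWSCIILFLVATATGVHS.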

[2] = molecular target: pneumococcal polysaccharide Pn7B
Experimental: as §1

[3] = molecular target: pneumococcal polysaccharide Pn7C
Experimental: as §1

[4] = molecular target: pneumococcal polysaccharide Pn7F
Experimental: as §1

[5] = molecular target: pneumococcal polysaccharide Pn8
Experimental: as §1

[6] = molecular target: pneumococcal polysaccharide Pn9A
Experimental: as §1

[7] = molecular target: pneumococcal polysaccharide Pn9L
Experimental: as §1

[8] = molecular target: pneumococcal polysaccharide Pn9N
Experimental: as §1

[9] = molecular target: pneumococcal polysaccharide Pn9V
Experimental: as §1

[10] = molecular target: pneumococcal polysaccharide C-Poly-1
Experimental: as §1

[11] = molecular target: pneumococcal polysaccharide C-Poly-2
Experimental: as §1

[12] = molecular target: pneumococcal polysaccharide Pn1
Experimental: as §1

[13] = molecular target: pneumococcal polysaccharide Pn10A
Experimental: as §1

[14] = molecular target: pneumococcal polysaccharide Pn10B
Experimental: as §1

[15] = molecular target: pneumococcal polysaccharide Pn10C
Experimental: as §1

[16] = molecular target: pneumococcal polysaccharide Pn10F
Experimental: as §1

[17] = molecular target: pneumococcal polysaccharide Pn11A
Experimental: as §1

[18] = molecular target: pneumococcal polysaccharide Pn11B
Experimental: as §1

[19] = molecular target: pneumococcal polysaccharide Pn11C
Experimental: as §1

[20] = molecular target: pneumococcal polysaccharide Pn11D
Experimental: as §1

[21] = molecular target: pneumococcal polysaccharide Pn11F
Experimental: as §1

[22] = antibody concentration 2.8593 ng/mL
[23] = antibody concentration 15.2894 ng/mL
[24] = antibody concentration 81.7561 ng/mL
[25] = antibody concentration 437.17 ng/mL
[26] = antibody concentration 2337.65 ng/mL
[27] = antibody concentration 12500 ng/mL
[28] = antibody concentration 0.1 ng/mL
[29] = antibody concentration 0.534724 ng/mL

B1: 4-99.4 (protein)
chain 1: QVQLQESGPGLVKPSETLSLTCAVSGYSISSAYFWGWIRQPPGKGLEYIGYISGEGGKSYYNPSLMSRVTISKDTSKNQFSLKLNTVTAADTAVYYCARRAILVGFDLWGQGVLVTVSS
chain 2: QAAPTQPPSVSGSPGQSVTISCTGSNSDIGYYNAVSWYQQHPGKAPKLMIYEVSKRPSGVSDRLTGSKSGNTASLTISGLQAEDEADYYCSSYAGSNTYIFGTGTRLTVL
fluorescence intensity [1, 22]: 20.8 MFI | fluorescence intensity [1, 23]: 20 MFI | fluorescence intensity [1, 24]: 20 MFI | fluorescence intensity [1, 25]: 22.5 MFI | fluorescence intensity [1, 26]: 31 MFI | fluorescence intensity [1, 27]: 138 MFI | fluorescence intensity [2, 28]: 18.5 MFI | fluorescence intensity [2, 29]: 16 MFI | fluorescence intensity [2, 22]: 17.5 MFI | fluorescence intensity [2, 23]: 16.2 MFI | fluorescence intensity [2, 24]: 15.5 MFI | fluorescence intensity [2, 25]: 16.5 MFI | fluorescence intensity [2, 26]: 18.5 MFI | fluorescence intensity [2, 27]: 36.5 MFI | fluorescence intensity [3, 28]: 17.5 MFI | fluorescence intensity [3, 29]: 14.2 MFI | fluorescence intensity [3, 22]: 15.8 MFI | fluorescence intensity [3, 23]: 16.8 MFI | fluorescence intensity [3, 24]: 17 MFI | fluorescence intensity [3, 25]: 16 MFI | fluorescence intensity [3, 26]: 17.5 MFI | fluorescence intensity [3, 27]: 31.5 MFI | fluorescence intensity [4, 28]: 15.5 MFI | fluorescence intensity [4, 29]: 15 MFI | fluorescence intensity [4, 22]: 16.5 MFI | fluorescence intensity [4, 23]: 14.5 MFI | fluorescence intensity [4, 24]: 15 MFI | fluorescence intensity [4, 25]: 16.5 MFI | fluorescence intensity [4, 26]: 21.5 MFI | fluorescence intensity [4, 27]: 95.5 MFI | fluorescence intensity [5, 28]: 22.5 MFI | fluorescence intensity [5, 29]: 21.5 MFI | fluorescence intensity [5, 22]: 23.2 MFI | fluorescence intensity [5, 23]: 22 MFI | fluorescence intensity [5, 24]: 22.5 MFI | fluorescence intensity [5, 25]: 25.5 MFI | fluorescence intensity [5, 26]: 28.2 MFI | fluorescence intensity [5, 27]: 48.5 MFI | fluorescence intensity [6, 28]: 21 MFI | fluorescence intensity [6, 29]: 20.5 MFI | fluorescence intensity [6, 22]: 19.5 MFI | fluorescence intensity [6, 23]: 19 MFI | fluorescence intensity [6, 24]: 19.2 MFI | fluorescence intensity [6, 25]: 20.5 MFI | fluorescence intensity [6, 26]: 21.5 MFI | fluorescence intensity [6, 27]: 43.2 MFI | fluorescence intensity [7, 28]: 18 MFI | fluorescence intensity [7, 29]: 18.5 MFI | fluorescence intensity [7, 22]: 18.5 MFI | fluorescence intensity [7, 23]: 19 MFI | fluorescence intensity [7, 24]: 17.2 MFI | fluorescence intensity [7, 25]: 16 MFI | fluorescence intensity [7, 26]: 20 MFI | fluorescence intensity [7, 27]: 32 MFI | fluorescence intensity [8, 28]: 17 MFI | fluorescence intensity [8, 29]: 17 MFI | fluorescence intensity [8, 22]: 17 MFI | fluorescence intensity [8, 23]: 16.5 MFI | fluorescence intensity [8, 24]: 15.2 MFI | fluorescence intensity [8, 25]: 17 MFI | fluorescence intensity [8, 26]: 18.5 MFI | fluorescence intensity [8, 27]: 32 MFI | fluorescence intensity [9, 28]: 15.5 MFI | fluorescence intensity [9, 29]: 15 MFI | fluorescence intensity [9, 22]: 14.5 MFI | fluorescence intensity [9, 23]: 16 MFI | fluorescence intensity [9, 24]: 16 MFI | fluorescence intensity [9, 25]: 15.5 MFI | fluorescence intensity [9, 26]: 16.5 MFI | fluorescence intensity [9, 27]: 26.5 MFI

B2: 4-99.5 (protein)
chain 1: QVQLQESGPGLVKPSETLSLTCAVSGYSISSGYYWGWIRQPPGKGLEYIGYISGSSGSPYYNPSLKSRVTISKDTSKNQFSLKLSSATAADTAVYYCARRQVGIGFDYWGQGVLVTVSS
chain 2: QAAPTQPPSVSGSPGQSVTISCTGTSSDIGYYNAVSWYQQHPGKAPKLMIYEVSKRPSGVSDRFSGSKSGNTASLTISGLQAEDEADYYCSSYAGSNTYIFGAGTRLTVL
fluorescence intensity [10, 28]: 27.5 MFI | fluorescence intensity [10, 29]: 28.8 MFI | fluorescence intensity [10, 22]: 28.5 MFI | fluorescence intensity [10, 23]: 27.5 MFI | fluorescence intensity [10, 24]: 25.2 MFI | fluorescence intensity [10, 25]: 26 MFI | fluorescence intensity [10, 26]: 31.2 MFI | fluorescence intensity [10, 27]: 62.2 MFI | fluorescence intensity [11, 28]: 21 MFI | fluorescence intensity [11, 29]: 20.5 MFI | fluorescence intensity [11, 22]: 21 MFI | fluorescence intensity [11, 23]: 21.2 MFI | fluorescence intensity [11, 24]: 22 MFI | fluorescence intensity [11, 25]: 23.2 MFI | fluorescence intensity [11, 26]: 27.2 MFI | fluorescence intensity [11, 27]: 50.5 MFI | fluorescence intensity [12, 28]: 14 MFI | fluorescence intensity [12, 29]: 14 MFI | fluorescence intensity [12, 22]: 14.5 MFI | fluorescence intensity [12, 23]: 14.5 MFI | fluorescence intensity [12, 24]: 14.5 MFI | fluorescence intensity [12, 25]: 14.5 MFI | fluorescence intensity [12, 26]: 16.8 MFI | fluorescence intensity [12, 27]: 24.5 MFI | fluorescence intensity [13, 28]: 26.5 MFI | fluorescence intensity [13, 29]: 26.5 MFI | fluorescence intensity [13, 22]: 27.2 MFI | fluorescence intensity [13, 23]: 28 MFI | fluorescence intensity [13, 24]: 28 MFI | fluorescence intensity [13, 25]: 25.5 MFI | fluorescence intensity [13, 26]: 27.8 MFI | fluorescence intensity [13, 27]: 30.5 MFI | fluorescence intensity [14, 28]: 25 MFI | fluorescence intensity [14, 29]: 26.2 MFI | fluorescence intensity [14, 22]: 24.5 MFI | fluorescence intensity [14, 23]: 23.5 MFI | fluorescence intensity [14, 24]: 26.8 MFI | fluorescence intensity [14, 25]: 24.5 MFI | fluorescence intensity [14, 26]: 27.5 MFI | fluorescence intensity [14, 27]: 30.5 MFI | fluorescence intensity [15, 28]: 17.2 MFI | fluorescence intensity [15, 29]: 18 MFI | fluorescence intensity [15, 22]: 17.5 MFI | fluorescence intensity [15, 23]: 16 MFI | fluorescence intensity [15, 24]: 18.8 MFI | fluorescence intensity [15, 25]: 16 MFI | fluorescence intensity [15, 26]: 18.5 MFI | fluorescence intensity [15, 27]: 22 MFI | fluorescence intensity [16, 28]: 18.8 MFI | fluorescence intensity [16, 29]: 20.8 MFI | fluorescence intensity [16, 22]: 19 MFI | fluorescence intensity [16, 23]: 22.2 MFI | fluorescence intensity [16, 24]: 20.5 MFI | fluorescence intensity [16, 25]: 21.5 MFI | fluorescence intensity [16, 26]: 21.5 MFI | fluorescence intensity [16, 27]: 24 MFI | fluorescence intensity [17, 28]: 29.8 MFI | fluorescence intensity [17, 29]: 30.2 MFI | fluorescence intensity [17, 22]: 31.5 MFI | fluorescence intensity [17, 23]: 30 MFI | fluorescence intensity [17, 24]: 30 MFI | fluorescence intensity [17, 25]: 33 MFI | fluorescence intensity [17, 26]: 32 MFI | fluorescence intensity [17, 27]: 40 MFI | fluorescence intensity [18, 28]: 28 MFI | fluorescence intensity [18, 29]: 25.5 MFI | fluorescence intensity [18, 22]: 28.2 MFI | fluorescence intensity [18, 23]: 26.2 MFI | fluorescence intensity [18, 24]: 29.2 MFI | fluorescence intensity [18, 25]: 28.2 MFI | fluorescence intensity [18, 26]: 31 MFI | fluorescence intensity [18, 27]: 35.5 MFI | fluorescence intensity [19, 28]: 22.5 MFI | fluorescence intensity [19, 29]: 23 MFI | fluorescence intensity [19, 22]: 21.5 MFI | fluorescence intensity [19, 23]: 22.8 MFI | fluorescence intensity [19, 24]: 22 MFI | fluorescence intensity [19, 25]: 23 MFI | fluorescence intensity [19, 26]: 27.5 MFI | fluorescence intensity [19, 27]: 74.8 MFI | fluorescence intensity [20, 28]: 26.5 MFI | fluorescence intensity [20, 29]: 23.5 MFI | fluorescence intensity [20, 22]: 23.5 MFI | fluorescence intensity [20, 23]: 22 MFI | fluorescence intensity [20, 24]: 22.2 MFI | fluorescence intensity [20, 25]: 26 MFI | fluorescence intensity [20, 26]: 26 MFI | fluorescence intensity [20, 27]: 48 MFI | fluorescence intensity [21, 28]: 14.5 MFI | fluorescence intensity [21, 29]: 12.5 MFI
